{"source": "PubChem BioAssay AID1259254 (NCATS, 2017)", "screen": "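Finding genes that stop cells copying their DNA twice in one cycle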 (primary screen)", "cell system": "human HCT116 colorectal cancer cells", "reagent": "single siRNA against human genes", "time to read-out": "3 days", "read-out": "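Imaged Hoechst DNA stain sorts each cell into a cycle phase by DNA amount; per plate, G2 fraction set to 0% for non-targeting and 100% for GMNN siRNA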", "reading the numbers": "G2 robust z-score and G2 cells, % of GMNN control: higher = more G2 cells, more excess DNA replication", "hit rule": "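Active siRNAs have a G2 robust z of 5 or more median absolute deviations over the median, which in these data means about 38% or higher of GMNN control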", "note": "Shown is an unselected part of about 59,000 reagents. Of all reagents, about 1,550 (2.6%) got an active call. 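G2 share is only a proxy for re-replication; each gene was hit by three separate siRNAs, and active genes were retested.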 Entries without a mark were called inactive. The numbers tell different reagents against one gene apart. Further read-outs or replicates are left out here. Reagent sequences are not shown. Not stated in the record: the amount of reagent."}
{"Target gene":"ZNF232 (zinc finger protein 232)","reagent":1,"G2 robust z-score":2.62,"G2 cells, % of GMNN control":21.4}
{"Target gene":"ZNF232 (zinc finger protein 232)","reagent":2,"G2 robust z-score":0.91,"G2 cells, % of GMNN control":9.37}
{"Target gene":"ZNF232 (zinc finger protein 232)","reagent":3,"G2 robust z-score":0.428,"G2 cells, % of GMNN control":5.98}
{"Target gene":"CBLN4 (cerebellin 4 precursor)","reagent":1,"G2 robust z-score":-1.01,"G2 cells, % of GMNN control":-4.17}
{"Target gene":"CBLN4 (cerebellin 4 precursor)","reagent":2,"G2 robust z-score":-0.389,"G2 cells, % of GMNN control":0.227}
{"Target gene":"CBLN4 (cerebellin 4 precursor)","reagent":3,"G2 robust z-score":0.369,"G2 cells, % of GMNN control":5.56}
{"Target gene":"DTWD1 (DTW motif tRNA-uridine aminocarboxypropyltransferase 1)","reagent":1,"G2 robust z-score":-0.767,"G2 cells, % of GMNN control":-2.43}
{"Target gene":"DTWD1 (DTW motif tRNA-uridine aminocarboxypropyltransferase 1)","reagent":2,"G2 robust z-score":0.279,"G2 cells, % of GMNN control":4.93}
{"Target gene":"DTWD1 (DTW motif tRNA-uridine aminocarboxypropyltransferase 1)","reagent":3,"G2 robust z-score":-0.639,"G2 cells, % of GMNN control":-1.53}
{"Target gene":"PRR35 (proline rich 35)","reagent":1,"G2 robust z-score":-0.86,"G2 cells, % of GMNN control":-3.08}
{"Target gene":"PRR35 (proline rich 35)","reagent":2,"G2 robust z-score":0.325,"G2 cells, % of GMNN control":5.26}
{"Target gene":"PRR35 (proline rich 35)","reagent":3,"G2 robust z-score":-0.0552,"G2 cells, % of GMNN control":2.58}
{"Target gene":"LOC728376 (zinc finger protein 430 pseudogene)","reagent":1,"G2 robust z-score":-0.973,"G2 cells, % of GMNN control":-3.88}
{"Target gene":"LOC728376 (zinc finger protein 430 pseudogene)","reagent":2,"G2 robust z-score":-0.353,"G2 cells, % of GMNN control":0.484}
{"Target gene":"LOC728376 (zinc finger protein 430 pseudogene)","reagent":3,"G2 robust z-score":1.4,"G2 cells, % of GMNN control":12.8}
{"Target gene":"SLC10A4","reagent":1,"G2 robust z-score":-0.216,"G2 cells, % of GMNN control":1.45}
{"Target gene":"SLC10A4","reagent":2,"G2 robust z-score":-0.126,"G2 cells, % of GMNN control":2.08}
{"Target gene":"SLC10A4","reagent":3,"G2 robust z-score":-0.574,"G2 cells, % of GMNN control":-1.07}

Entries listed so far whose gene name starts with C or c:
{"Target gene":"CBLN4 (cerebellin 4 precursor)","reagent":1,"G2 robust z-score":-1.01,"G2 cells, % of GMNN control":-4.17}
{"Target gene":"CBLN4 (cerebellin 4 precursor)","reagent":2,"G2 robust z-score":-0.389,"G2 cells, % of GMNN control":0.227}
{"Target gene":"CBLN4 (cerebellin 4 precursor)","reagent":3,"G2 robust z-score":0.369,"G2 cells, % of GMNN control":5.56}
